Results deposited as PubChem BioAssay AID1259254 (NCATS, 2017).
Shown is an unselected part of about 59,000 reagents. Over the whole deposit, about 1,550 (2.6%) were called active. 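G2 share is only a proxy for re-replication; each gene was hit by three separate siRNAs, and active genes were retested.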 Unmarked entries are inactive. Not all columns of the deposit are shown. The record does not give: the amount of reagent.

Assay: 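Genome-wide screen for genes that prevent DNA re-replication in cancer cells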 (primary screen)
Cell system: human HCT116 colorectal cancer cells
Reagent: single siRNA against human genes
Duration: 3 days
Measured: 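Nuclei stained with Hoechst and imaged; cell-cycle phase assigned by DNA content; G2 share scaled per plate, non-targeting siRNA 0%, GMNN siRNA 100%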
Reading the numbers: G2 robust z-score: higher = more G2 cells, more excess DNA replication
Active means: 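An siRNA counts as active if its G2 robust z-score lies at least 5 MADs above the screen median; here such calls match roughly 38% of GMNN control or more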

G2 robust z-score, by gene and reagent
GPR82 (GeneID 27197): SID160738535 -0.4; SID160738536 -0.0487; SID160738537 -0.683
PHF14 (GeneID 9678): SID160722782 -0.306; SID160722783 -0.62; SID160732215 0.0703
TOX4 (GeneID 9878): SID160723323 0.335; SID160723324 0.16; SID160723326 -0.872
TMEM164 (GeneID 84187): SID160751855 4.71; SID160751856 2.59; SID160751857 -0.82

No new results follow: an excerpt of the list.
G2 robust z-score, by gene and reagent
GPR82 (GeneID 27197): SID160738536 -0.0487; SID160738537 -0.683
PHF14 (GeneID 9678): SID160722782 -0.306

More entries follow.
G2 robust z-score, by gene and reagent
MMADHC (GeneID 27249): SID160738609 -0.789; SID160738610 0.0525; SID160738611 -0.909
OR6M1 (GeneID 390261): SID160766471 4.42; SID160766472 -0.344; SID160766473 -0.488
NOTCH2 (GeneID 4853): SID160778154 1.22; SID160778155 -1.11; SID160778156 -0.547
LY6G5C (GeneID 80741): SID160734991 -0.738; SID160750511 0.451; SID160750512 -0.246
ADPRM (GeneID 56985): SID160745447 -0.492; SID160745448 1.14; SID160745449 -0.997
TSC22D4 (GeneID 81628): SID160724579 -0.431; SID160731971 0.965; SID160750929 0.195
